Experimental findings from PubChem BioAssay AID1347423 (Functional Genomics Laboratory (NCATS/FGL), 2020) are described below.

Among all 52,000 sequences or so, about 210 (0.4%) were called active.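 Rule for the calls: active = gene whose silencing raises cell survival under the drug, median off-target-corrected z-score across its silencing RNAs 2 or more; inactive = the rest.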 Some of the results follow.

The experiment in a line: Resistance to Poly (ADP-Ribose) Polymerase inhibitor: Gene Identification via Genome-wide siRNA Screen. The note with it: mouse BRCA2 R2336H ES cells, olaparib, CellTiter-Glo viability; hits give high values. An excerpt: The role of Poly (ADP-Ribose) Polymerase (PARP) proteins in DNA repair has been elegantly utilized for the synthetic lethality-based treatment of BRCA-deficient tumors by PARP inhibitors. PARP inhibitors are now being used for treatment of BRCA-deficient breast and ovarian cancers. […] While several mechanisms of drug resistance have been identified, majority of these tumors develop drug resistance due to unknown causes. To identified novel regulators of chemo-resistance in BRCA2-mutated cells, we performed a genome wide siRNA library screen. We have found ES cells expressing a hypomorphic allele of BRCA2 to be hypersensitive to PAPP inhibitors (such as olaparib). We used ES cells expressing a mutant allele of BRCA2 that has a single amino acid substitution at position 2336 (arginine to histidine, R2336H). The screen was conducted using an Ambion (Thermo) Silencer Mouse Genome siRNA collection. The library targets 17,575 mouse genes with 3 siRNAs per gene. TET2 (E130014J05Rik) was identified as a top candidate.
Transfections were performed in 384 well plates (Corning 3707). Plates were coated with 0.1% gelatin in H2O overnight at ambient temperature. Gelatin solution was aspirated (BioTek EL406) and siRNAs were printed using a Bravo VPrep liquid handler integrated within a BioCel automation platform (Agilent). Cell viability was measured using CellTiter Glo (Promega). For transfections, […] of serum free media containing Lipofectamine RNAiMax […] was added to wells containing siRNA (0.8pmol). Lipid and siRNA were allowed to complex for 45 min at ambient temperature before addition of 1000 cells in DMEM, 30% FBS to yield final transfection mixtures containing 20 nM siRNA in DMEM, 15% FBS. PARPi (olaparib, AZD2281) was added 48 h post-transfection (500 nM) and viability (CellTiter Glo, Promega) was assayed 72 h later on a PerkinElmer Envision 2104 Multilabel plate reader. Ambion Silencer Select Negative Control #2 was incorporated on all screening plates (16 wells) and the median negative control value on each plate was used for normalization. An siRNA targeting Trp53 was used as a positive control. This control yielded a median protective effect of ~1.9 fold versus negative control throughout the screen. The median absolute deviation (MAD) based z-score was calculated for each siRNA. Genes were then ranked by taking the median value for all siRNAs tested against a given gene. Scores were also adjusted for seed-based off-target effects to help deprioritize likely false positives.
In general terms: ATP-based viability assays read luminescence as a measure of living cells.
Take GGUGCUGGACGAAAUUGUATT against Arhgdig: the z-score was inactive: -0.106. Next, GGAGAAAGAGAUCACCAUCTT against Slc8a2: inactive: 0.606; GGCUAAUGCUCCUUCAUGUTT against Myo18a: inactive: -2.42. Next, “GGAAUAUACCCUGAAACAUTT against 4921509E07Rik”: inactive: -0.406; “GGAGAAUCAGUAUUCCAUATT against 9330161C17Rik”: inactive: 0.511.

As for GGAUAUCUCGGGUUGAAUUTT against Stk6, the z-score is inactive: -1.75. For the sequence GGCUACCAAGCUCCUCUAUTT against Zfyve21, the z-score is inactive: -1.82. Next, GGUCCUCAUCGAAUUACACTT against Trip10: inactive: -0.458; “CCUCAUUCAGAGUAUAUAGTT against E030013G06Rik”: inactive: -0.215. Next, “GGUAGAGCGCAGAAUUAGATT against 3300001P08Rik”: inactive: -1.38; GGACCUCCAGAGCAUACUGTT against Plscr2: inactive: 0.00576; GGGCCACUGUGUAAUUCAATT against Pcdhgc5: inactive: 0.789.

Consider GGACCUUUGUAUUUCAUUUTT against Dorz1, for which the z-score is inactive: -0.579. For GGAUUCUGAAUAUUUGCCATT against Glipr2, the z-score was inactive: -0.313. Consider GGGAGCAACCGGACAAUAUTT against Spa17, for which the z-score was inactive: 0.524. On to CCACAAAGGAAUUCAUGAGTT against Dhx16, for which the z-score was inactive: -0.191. In the case of GGCUGACAUAACAUUAAAATT against Bves, the z-score was inactive: 0.551. Next, GGUCAAGAGUGCCCUAAAATT against Olfr398: inactive: -1.68; CCACACCAGAGGUCUUUGATT against Usmg4: inactive: -3.17; GCGUGUUAGGAAAAACUCUTT against BC027073: inactive: -0.864. Next, GGCAUUUUGAGACUCUACUTT against Crygb: inactive: -0.63; CGGCAGAUUGCUGCUUUGATT against V2r12: inactive: -2.17. Next, CGGGUAUCAUCGAUUAUGGTT against Tnfaip6: inactive: 2.2.

GGGAUUCCACGGAUACUGUTT against Rnase13: the z-score is inactive: 0.81. Next, GGAAUUGAUCACUAACCCUTT against Cd97: inactive: -1.2; GGUAAGAACUGAAAUGCAUTT against Irf4: inactive: 0.889. Next, ACUCAUUACACCCUUACCUTT against LOC381680: inactive: 0.131; GGUAAAGCUGAAGACAAGGTT against Rps2: inactive: -3.26.

Regarding GGAACGAGAAGAAGAAGAATT against Acin1, the z-score was inactive: -1.32. As to GGACCUGCCCAAAUCUGAUTT against Fbxo40, the z-score is inactive: -0.385. Next, GGUUUACGCAGACUCAAGUTT against Trim14: inactive: -0.117; GGUAUGCCGCUAUCUGUCATT against Olfr99: inactive: -2.96; GGGAAUGCAGCUAGGAAGATT against Paics: inactive: -3.19.

Take CCAGUCACAUGAUCUUCGATT against Car10: the z-score is inactive: 0.744. Next, CCUCUACAUCCAGGAAUGATT against Map4k1: inactive: -1.23.

Consider “CCAUAUGGUCAUUAUACCUTT against 2810460C24Rik”, for which the z-score is inactive: 0.324. Next, GCCUCGAAUGCUAGACUUCTT against Faf1: inactive: -0.722.

Consider GGCCUAUCUUGUUUAUUUGTT against Tgtp, for which the z-score is inactive: 0.705. Next, “GCCGGAUAACAUCAGACACTT against 0610042C05Rik”: inactive: 0.392.

In the case of “GGAAAAAUGUAAUAAGCCATT against 2610318G18Rik”, the z-score was inactive: -0.0781. As to GGACUUGCUAGAUACGAUCTT against Edaradd, the z-score is inactive: 0.0515.

On to CCAUGCUCUAUCAAUGUUCTT against Sprr3, for which the z-score is inactive: 0.853. In the case of GGGCAAGUACUUCUCUAGCTT against Cdsn, the z-score was inactive: 1.32. Next, CCUCCAUUGAUACUCAAGUTT against Pycr1: inactive: 0.708; GGAAACUGGUCCCUAUCAATT against Sp2: inactive: 0.652. Next, “GCAAGUAACAAUCGCUUAUTT against 1810073M12Rik”: inactive: 0.223; GCAUCAACAUCCAUCUAUCTT against Kctd8: inactive: -0.0646. Next, GGCUCAGACCUGGAUACAUTT against Oas1e: inactive: -0.463; GUUCACACACGAAUUUGACTT against H2-Oa: inactive: 0.232.

“GCACGUGGAUCCUAACAAGTT against 4932702D22Rik”: the z-score was inactive: -0.0557. Next, “CCUAAAACCUUCAAGUCUUTT against 2700017M01Rik”: inactive: 1.06; CCUUCUGCGGCUCAGUCUATT against BC024582: inactive: -1.93. Next, CCAAAUCUGAAAUGUGCGGTT against Mare: inactive: 0.0524; GGUCUCUUGACUUCAGUACTT against Shc3: inactive: 0.195. Next, “CGAGGAUGCUUUUUAAAAATT against 1110054O05Rik”: inactive: 0.907; GGAAGAGGAGUCCUACUCUTT against Pla2g12b: inactive: 0.406; CGGGAGAAAAUUUUAAAGGTT against Qscn6l1: inactive: 1.79. For the sequence CCAGUAUUAUCUAACAUCGTT against Pdk4, the z-score was inactive: 1.14. Next, GGCAAUGGCUUCGUAGUAUTT against Ltb4r2: inactive: -1.21; “GGUCAUGGCUACUUCAUCCTT against A930013K19”: inactive: 0.982. Next, “GGAUGACAAUCAACAUUCCTT against B430201G11Rik”: inactive: 0.302; GGAGAAAGCAAGGAUAAUCTT against Rgs20: inactive: 0.584. Next, CCACAGUACGCUGAAAUCCTT against Morf4l1: inactive: 0.394. Take GGCAUACAAGAAGUGUCUATT against Snta1: the z-score is inactive: 0.389. Next, GGAAACCUGAUUAUCAUCATT against Olfr791: inactive: 0.431. Next, GCACUUAAUACUUUAUGUGTT against Iapp: inactive: -1.41.
